These are yes or no findings as the source states them, for the method shown. Binding seen in cells or lysates may run through a third protein. Some entries that bind do so weakly or less than the wild type.
Experiments:
[1] = biological target: TCF12 (human (endogenous in HUVECs)) (UniProt Q99081); assay: co-IP; 500 ug of nuclear extracts of HUVECs treated 24 h with PBS or 0.3 ug/ml OPN; overnight at 4°C with 10 ug control IgG or anti-TCF12 antibody, protein A/G-Sepharose, immunoblot
[2] = biological target: CD44 (human (endogenous in HUVECs)) (UniProt P16070); assay: proximity ligation; HUVECs treated 45 min with PBS or 0.3 ug/ml OPN, fixed; anti-OPN with anti-integrin αVβ3 or anti-CD44 antibody, Duolink in situ PLA kit; only the binder purified
[3] = biological target: integrin αVβ3 (human (endogenous in HUVECs)) (UniProt P06756+P05106); assay: as above

The chains behind the UniProt entries cited, without tags or fusion partners. Where a name states a change or a piece, a line headed by the entry shows the natural chain unless it says otherwise. Residues count along the entry.
UniProt Q99081: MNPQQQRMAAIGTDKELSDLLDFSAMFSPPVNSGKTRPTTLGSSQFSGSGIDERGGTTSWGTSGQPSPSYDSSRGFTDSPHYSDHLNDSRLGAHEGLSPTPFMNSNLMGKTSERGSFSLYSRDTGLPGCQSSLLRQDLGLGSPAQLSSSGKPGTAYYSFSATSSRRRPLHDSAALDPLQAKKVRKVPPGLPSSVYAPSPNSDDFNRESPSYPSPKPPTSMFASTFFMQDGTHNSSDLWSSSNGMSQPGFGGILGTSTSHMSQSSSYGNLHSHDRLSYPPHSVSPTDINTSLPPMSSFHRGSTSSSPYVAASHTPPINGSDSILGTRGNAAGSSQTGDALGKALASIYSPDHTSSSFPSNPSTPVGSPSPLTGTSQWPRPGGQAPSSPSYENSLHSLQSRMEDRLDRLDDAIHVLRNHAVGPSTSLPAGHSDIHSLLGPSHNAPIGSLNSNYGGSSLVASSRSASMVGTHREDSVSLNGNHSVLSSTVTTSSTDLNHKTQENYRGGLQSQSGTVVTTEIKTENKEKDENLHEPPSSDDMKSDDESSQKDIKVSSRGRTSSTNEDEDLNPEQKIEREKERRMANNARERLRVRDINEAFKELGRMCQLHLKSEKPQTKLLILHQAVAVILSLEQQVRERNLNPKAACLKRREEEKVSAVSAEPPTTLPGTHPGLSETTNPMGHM
UniProt P16070, residues 21-742: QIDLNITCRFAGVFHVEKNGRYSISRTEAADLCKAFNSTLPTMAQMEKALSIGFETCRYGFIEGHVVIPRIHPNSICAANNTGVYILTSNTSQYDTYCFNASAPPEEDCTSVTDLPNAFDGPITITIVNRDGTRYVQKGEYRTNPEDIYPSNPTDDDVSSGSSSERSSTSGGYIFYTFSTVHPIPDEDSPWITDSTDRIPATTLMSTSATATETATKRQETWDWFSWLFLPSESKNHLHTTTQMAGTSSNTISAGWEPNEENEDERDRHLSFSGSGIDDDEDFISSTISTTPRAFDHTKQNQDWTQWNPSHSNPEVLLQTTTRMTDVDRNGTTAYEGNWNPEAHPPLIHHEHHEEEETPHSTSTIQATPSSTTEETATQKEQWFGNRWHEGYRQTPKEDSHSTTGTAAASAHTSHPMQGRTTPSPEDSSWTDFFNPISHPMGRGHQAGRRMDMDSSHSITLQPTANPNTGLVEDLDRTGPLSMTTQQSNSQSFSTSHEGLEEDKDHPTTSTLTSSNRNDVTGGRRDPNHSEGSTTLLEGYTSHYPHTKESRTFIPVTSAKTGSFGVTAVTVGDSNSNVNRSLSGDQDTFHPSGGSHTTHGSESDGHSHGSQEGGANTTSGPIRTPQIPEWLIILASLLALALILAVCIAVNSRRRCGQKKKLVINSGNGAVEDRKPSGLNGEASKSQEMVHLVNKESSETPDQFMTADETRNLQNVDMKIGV
UniProt P06756: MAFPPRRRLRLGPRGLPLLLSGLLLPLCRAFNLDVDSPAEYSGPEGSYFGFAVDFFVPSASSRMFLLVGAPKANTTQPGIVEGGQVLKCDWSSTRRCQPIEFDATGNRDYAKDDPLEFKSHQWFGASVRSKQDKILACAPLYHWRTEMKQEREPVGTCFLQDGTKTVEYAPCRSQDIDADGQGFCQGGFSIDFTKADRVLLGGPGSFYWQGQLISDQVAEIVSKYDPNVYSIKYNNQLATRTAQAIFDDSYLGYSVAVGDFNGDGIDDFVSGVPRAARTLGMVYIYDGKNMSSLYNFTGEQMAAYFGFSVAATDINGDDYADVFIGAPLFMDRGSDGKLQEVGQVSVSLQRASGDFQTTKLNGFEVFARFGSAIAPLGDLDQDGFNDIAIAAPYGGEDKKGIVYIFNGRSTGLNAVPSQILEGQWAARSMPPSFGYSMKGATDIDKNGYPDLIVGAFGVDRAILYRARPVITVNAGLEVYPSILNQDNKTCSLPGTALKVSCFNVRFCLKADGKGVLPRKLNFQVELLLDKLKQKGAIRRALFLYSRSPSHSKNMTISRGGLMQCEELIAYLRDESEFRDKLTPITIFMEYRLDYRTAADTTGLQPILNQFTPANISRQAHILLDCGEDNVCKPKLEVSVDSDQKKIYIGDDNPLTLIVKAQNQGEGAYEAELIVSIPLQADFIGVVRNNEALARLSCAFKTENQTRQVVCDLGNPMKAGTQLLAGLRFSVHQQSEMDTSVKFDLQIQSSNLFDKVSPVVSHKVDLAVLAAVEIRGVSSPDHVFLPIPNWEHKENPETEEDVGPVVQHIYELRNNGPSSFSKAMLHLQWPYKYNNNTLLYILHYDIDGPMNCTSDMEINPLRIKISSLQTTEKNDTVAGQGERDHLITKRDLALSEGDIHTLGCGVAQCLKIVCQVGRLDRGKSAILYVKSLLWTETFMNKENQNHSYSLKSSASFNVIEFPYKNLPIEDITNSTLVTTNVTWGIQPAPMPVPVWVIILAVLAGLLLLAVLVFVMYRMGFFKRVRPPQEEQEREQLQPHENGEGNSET
UniProt P05106: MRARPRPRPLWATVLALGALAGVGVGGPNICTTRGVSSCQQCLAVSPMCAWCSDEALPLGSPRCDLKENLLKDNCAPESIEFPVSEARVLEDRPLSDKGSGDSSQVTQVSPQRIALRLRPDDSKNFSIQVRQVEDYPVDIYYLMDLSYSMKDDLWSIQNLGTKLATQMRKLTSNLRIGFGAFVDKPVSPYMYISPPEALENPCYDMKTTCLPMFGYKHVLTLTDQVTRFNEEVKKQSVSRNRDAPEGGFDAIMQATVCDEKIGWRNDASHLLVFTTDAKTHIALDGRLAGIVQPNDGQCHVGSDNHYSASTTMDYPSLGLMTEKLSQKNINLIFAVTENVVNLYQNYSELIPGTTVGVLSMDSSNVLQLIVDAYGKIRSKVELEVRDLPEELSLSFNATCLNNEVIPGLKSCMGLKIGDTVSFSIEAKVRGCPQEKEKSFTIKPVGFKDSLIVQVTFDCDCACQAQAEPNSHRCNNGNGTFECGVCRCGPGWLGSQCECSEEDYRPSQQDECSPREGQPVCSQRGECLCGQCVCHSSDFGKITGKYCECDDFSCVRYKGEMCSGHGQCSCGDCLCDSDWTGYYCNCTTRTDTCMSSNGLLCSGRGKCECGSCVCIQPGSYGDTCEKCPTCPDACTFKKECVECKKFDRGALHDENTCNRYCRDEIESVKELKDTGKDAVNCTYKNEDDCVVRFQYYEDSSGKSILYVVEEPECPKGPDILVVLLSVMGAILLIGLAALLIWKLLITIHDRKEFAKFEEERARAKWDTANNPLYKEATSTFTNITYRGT
UniProt P35226: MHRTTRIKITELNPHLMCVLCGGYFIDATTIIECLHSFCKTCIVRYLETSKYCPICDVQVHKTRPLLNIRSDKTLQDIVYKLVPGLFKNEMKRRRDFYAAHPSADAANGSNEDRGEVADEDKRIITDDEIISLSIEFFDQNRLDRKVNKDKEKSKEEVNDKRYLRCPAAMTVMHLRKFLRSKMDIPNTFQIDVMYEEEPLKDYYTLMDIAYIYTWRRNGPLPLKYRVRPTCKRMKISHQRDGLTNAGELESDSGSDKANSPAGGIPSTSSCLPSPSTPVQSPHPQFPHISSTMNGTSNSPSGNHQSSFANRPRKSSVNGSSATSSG
UniProt Q13547: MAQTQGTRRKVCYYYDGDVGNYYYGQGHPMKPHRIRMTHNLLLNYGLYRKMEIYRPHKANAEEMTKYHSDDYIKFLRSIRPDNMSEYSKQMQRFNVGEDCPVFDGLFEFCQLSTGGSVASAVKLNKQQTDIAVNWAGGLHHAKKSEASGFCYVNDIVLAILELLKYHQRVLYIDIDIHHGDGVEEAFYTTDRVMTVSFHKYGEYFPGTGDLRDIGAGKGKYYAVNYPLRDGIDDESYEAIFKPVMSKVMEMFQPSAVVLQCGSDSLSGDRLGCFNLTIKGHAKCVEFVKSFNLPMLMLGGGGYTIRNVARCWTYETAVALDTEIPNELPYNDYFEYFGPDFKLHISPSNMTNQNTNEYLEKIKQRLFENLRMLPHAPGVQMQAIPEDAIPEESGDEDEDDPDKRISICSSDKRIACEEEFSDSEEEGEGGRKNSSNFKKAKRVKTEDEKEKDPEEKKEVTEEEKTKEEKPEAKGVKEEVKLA
UniProt Q92769: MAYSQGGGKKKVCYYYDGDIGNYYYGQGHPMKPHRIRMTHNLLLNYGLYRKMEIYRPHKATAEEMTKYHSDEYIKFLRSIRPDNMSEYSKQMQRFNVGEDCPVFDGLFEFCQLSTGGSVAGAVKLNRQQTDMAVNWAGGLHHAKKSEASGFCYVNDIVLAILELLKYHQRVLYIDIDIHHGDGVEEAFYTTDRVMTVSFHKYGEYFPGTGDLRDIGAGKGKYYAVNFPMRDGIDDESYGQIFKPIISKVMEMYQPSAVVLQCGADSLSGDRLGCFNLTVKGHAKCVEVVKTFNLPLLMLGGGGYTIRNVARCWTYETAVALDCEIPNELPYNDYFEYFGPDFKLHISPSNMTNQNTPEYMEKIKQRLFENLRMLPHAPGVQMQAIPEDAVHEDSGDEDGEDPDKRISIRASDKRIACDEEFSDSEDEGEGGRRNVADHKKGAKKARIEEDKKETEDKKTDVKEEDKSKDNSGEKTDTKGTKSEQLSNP
UniProt O15379: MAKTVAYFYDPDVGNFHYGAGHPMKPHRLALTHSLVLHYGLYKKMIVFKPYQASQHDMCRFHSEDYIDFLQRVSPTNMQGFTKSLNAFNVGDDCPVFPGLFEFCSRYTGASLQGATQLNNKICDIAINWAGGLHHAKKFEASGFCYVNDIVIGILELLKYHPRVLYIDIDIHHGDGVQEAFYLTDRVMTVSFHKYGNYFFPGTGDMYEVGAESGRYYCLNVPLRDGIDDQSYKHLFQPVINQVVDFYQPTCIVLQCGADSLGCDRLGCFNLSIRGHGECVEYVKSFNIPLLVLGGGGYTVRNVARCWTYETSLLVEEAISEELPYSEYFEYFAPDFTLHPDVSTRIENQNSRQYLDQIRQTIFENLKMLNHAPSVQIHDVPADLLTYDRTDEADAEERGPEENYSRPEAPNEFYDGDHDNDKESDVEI
UniProt P10451, residues 17-314: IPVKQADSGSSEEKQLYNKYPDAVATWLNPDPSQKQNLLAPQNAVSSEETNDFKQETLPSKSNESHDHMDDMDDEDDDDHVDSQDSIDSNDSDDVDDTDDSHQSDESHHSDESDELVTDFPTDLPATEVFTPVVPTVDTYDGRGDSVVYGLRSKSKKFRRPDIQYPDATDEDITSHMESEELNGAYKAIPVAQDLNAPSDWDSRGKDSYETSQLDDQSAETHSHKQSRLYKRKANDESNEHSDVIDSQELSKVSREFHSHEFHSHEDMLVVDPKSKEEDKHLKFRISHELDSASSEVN

Row | binding [1] | binding [2] | binding [3] | Substance
1 | binds |  |  | Bmi1 (from UniProt P35226 1-326)
2 | binds |  |  | HDAC1 (from UniProt Q13547 1-482) (enzyme)
3 | binds |  |  | HDAC2 (from UniProt Q92769 1-488) (enzyme)
4 | binds |  |  | HDAC3 (from UniProt O15379 1-428) (enzyme)
5 |  | binds | binds | Osteopontin (from UniProt P10451 17-314) (ligand)

From PMC5797029
